Experimental data reported in PMC8097805.
Results are given in words; binding and its absence hold for the method and conditions named. In cells and extracts the contact can be indirect. Some results given as binding are weak or reduced against the parent protein; the word gives no strength.

The chains behind the UniProt entries cited, without tags or fusion partners. Residues count along the entry.
UniProt P56704, residues 19-352: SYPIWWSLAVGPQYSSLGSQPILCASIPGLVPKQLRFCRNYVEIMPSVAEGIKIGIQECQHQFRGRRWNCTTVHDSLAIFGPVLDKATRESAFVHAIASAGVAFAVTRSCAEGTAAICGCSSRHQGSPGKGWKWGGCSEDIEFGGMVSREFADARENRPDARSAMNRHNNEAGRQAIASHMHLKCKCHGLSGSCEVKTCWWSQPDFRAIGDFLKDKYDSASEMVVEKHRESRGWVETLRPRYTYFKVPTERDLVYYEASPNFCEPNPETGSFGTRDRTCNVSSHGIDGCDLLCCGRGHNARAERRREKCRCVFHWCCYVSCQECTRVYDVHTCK

Assays:
[1] = target: T1, Glypican-5 (human (endogenous in LNCaP)) (UniProt P78333); assay: co-IP; 500 ug total protein of cell extract (lysis buffer: 100 mM NaCl, 10% glycerol, 20 mM Tris-HCl pH 8.0, protease and phosphatase inhibitors) incubated with anti-glypican-1 or anti-glypican-5 overnight at 4 °C, protein A/G plus-agarose beads; Wnt-3a detected by immunoblot; RWPE-1, PC-3, DU-145 (GPC1) and LNCaP (GPC5) cells
T1 sequence: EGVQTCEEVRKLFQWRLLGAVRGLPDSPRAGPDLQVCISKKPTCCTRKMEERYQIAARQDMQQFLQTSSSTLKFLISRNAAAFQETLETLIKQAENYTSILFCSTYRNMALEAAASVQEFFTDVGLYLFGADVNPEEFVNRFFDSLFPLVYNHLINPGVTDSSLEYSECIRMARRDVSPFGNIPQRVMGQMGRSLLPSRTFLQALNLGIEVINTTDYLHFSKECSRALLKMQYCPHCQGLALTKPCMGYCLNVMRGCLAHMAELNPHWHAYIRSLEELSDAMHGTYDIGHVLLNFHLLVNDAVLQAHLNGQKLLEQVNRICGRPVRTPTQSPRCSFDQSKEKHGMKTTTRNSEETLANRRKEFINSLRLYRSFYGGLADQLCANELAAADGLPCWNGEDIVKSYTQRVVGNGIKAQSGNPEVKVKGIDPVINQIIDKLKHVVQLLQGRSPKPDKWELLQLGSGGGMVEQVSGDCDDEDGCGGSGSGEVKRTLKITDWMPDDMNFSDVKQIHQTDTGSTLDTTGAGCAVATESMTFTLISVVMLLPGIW

[2] = target: T2, Glypican-1 (human (endogenous in RWPE-1, PC-3, DU-145)) (UniProt P35052); assay: as above
T2 sequence: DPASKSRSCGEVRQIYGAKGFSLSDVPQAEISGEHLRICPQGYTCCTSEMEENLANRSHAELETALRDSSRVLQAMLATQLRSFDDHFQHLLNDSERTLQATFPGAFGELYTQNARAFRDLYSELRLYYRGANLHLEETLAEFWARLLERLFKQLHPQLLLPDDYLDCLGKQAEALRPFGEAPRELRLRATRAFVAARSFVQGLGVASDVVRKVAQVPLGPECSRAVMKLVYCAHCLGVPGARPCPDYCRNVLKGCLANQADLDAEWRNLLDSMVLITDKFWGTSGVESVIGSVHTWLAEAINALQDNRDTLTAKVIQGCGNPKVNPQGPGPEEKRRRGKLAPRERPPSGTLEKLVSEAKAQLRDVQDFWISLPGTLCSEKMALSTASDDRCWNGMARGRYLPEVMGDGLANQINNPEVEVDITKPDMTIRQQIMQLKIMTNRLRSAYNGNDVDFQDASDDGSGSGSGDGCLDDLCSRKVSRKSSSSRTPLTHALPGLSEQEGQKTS

Q: Which results are given for “Wnt-3a (from UniProt P56704 19-352) (ligand)”?
A: binding [1]: binds; binding [2]: binds
